In the supplement of paper PMC7661543:
± gives the standard deviation of the averaged measurements. The effect of the compound repeats well; differences between the knockouts mostly do not.

System: MDA-MB-231
Assay: relative cell number vs DMSO control (72 h) (% of DMSO); higher = less growth inhibition (more cells)
Method: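 QMAP-Seq: a pool of 5 breast cancer cell lines (ZR-75-1, SKBR3, HCC-38, MDA-MB-231, BT-20), each carrying 12 doxycycline-inducible Cas9 sgRNA perturbations (11 knockouts plus non-targeting sgNT), was treated with compounds for 72 h at four 10-fold doses (10 nM-10 uM or 1 nM-1 uM range). Barcodes were amplified and sequenced, and cell number was interpolated from 293T spike-in standard curves. The result is expressed as % of the median of DMSO wells. Two biological replicates.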

Fc1ccc(CNc2ncnc3ccc(F)cc23)cc1 [Spautin1]
Details | relative cell number
sgRNA knockout: sgATF3, 10 nM | 85.7 ± 16
sgRNA knockout: sgATF3, 100 nM | 101 ± 16
sgRNA knockout: sgATF3, 1000 nM | 108 ± 4.4
sgRNA knockout: sgATF3, 10000 nM | 92.6 ± 33
sgRNA knockout: sgATF4, 10 nM | 98 ± 9.4
sgRNA knockout: sgATF4, 100 nM | 80.2 ± 15
sgRNA knockout: sgATF4, 1000 nM | 91.6 ± 16
sgRNA knockout: sgATF4, 10000 nM | 108 ± 34
sgRNA knockout: sgATF6, 10 nM | 128 ± 24
sgRNA knockout: sgATF6, 100 nM | 98.8 ± 12
sgRNA knockout: sgATF6, 1000 nM | 89.7 ± 18
sgRNA knockout: sgATF6, 10000 nM | 102 ± 1.2
sgRNA knockout: sgATG7, 10 nM | 106 ± 14
sgRNA knockout: sgATG7, 100 nM | 111 ± 36
sgRNA knockout: sgATG7, 1000 nM | 92.5 ± 14
sgRNA knockout: sgATG7, 10000 nM | 87.7 ± 24
sgRNA knockout: sgERN1, 10 nM | 99.5 ± 2.6
sgRNA knockout: sgERN1, 100 nM | 84.6 ± 9.6
sgRNA knockout: sgERN1, 1000 nM | 97.9 ± 5.8
sgRNA knockout: sgERN1, 10000 nM | 104 ± 31
sgRNA knockout: sgHSF1, 10 nM | 108 ± 40
sgRNA knockout: sgHSF1, 100 nM | 92.9 ± 11
sgRNA knockout: sgHSF1, 1000 nM | 106 ± 7.8
sgRNA knockout: sgHSF1, 10000 nM | 102 ± 27
sgRNA knockout: sgHSF2, 10 nM | 111 ± 26
sgRNA knockout: sgHSF2, 100 nM | 127 ± 9.8
sgRNA knockout: sgHSF2, 1000 nM | 88.7 ± 6.8
sgRNA knockout: sgHSF2, 10000 nM | 98.8 ± 20
sgRNA knockout: sgKEAP1, 10 nM | 105 ± 25
sgRNA knockout: sgKEAP1, 100 nM | 88.3 ± 16
sgRNA knockout: sgKEAP1, 1000 nM | 93.3 ± 6.7
sgRNA knockout: sgKEAP1, 10000 nM | 75.3 ± 23
sgRNA knockout: sgNFE2L2, 10 nM | 99.5 ± 22
sgRNA knockout: sgNFE2L2, 100 nM | 82.2 ± 6.3
sgRNA knockout: sgNFE2L2, 1000 nM | 87.5 ± 11
sgRNA knockout: sgNFE2L2, 10000 nM | 94.8 ± 11
sgRNA knockout: sgSLC35F2, 10 nM | 100 ± 13
sgRNA knockout: sgSLC35F2, 100 nM | 103 ± 22
sgRNA knockout: sgSLC35F2, 1000 nM | 77.9 ± 21
sgRNA knockout: sgSLC35F2, 10000 nM | 87.9 ± 9.5
sgRNA knockout: sgXBP1, 10 nM | 98.4 ± 4
sgRNA knockout: sgXBP1, 100 nM | 85.5 ± 12
sgRNA knockout: sgXBP1, 1000 nM | 82.7 ± 9.9
sgRNA knockout: sgXBP1, 10000 nM | 89.8 ± 2.8

NC(=O)Nc1sc(-c2ccc(F)cc2)cc1C(N)=O [TPCA1]
Details | relative cell number
sgRNA knockout: sgATF3, 10 nM | 122 ± 24
sgRNA knockout: sgATF3, 100 nM | 92.4 ± 9.6
sgRNA knockout: sgATF3, 1000 nM | 121 ± 19
sgRNA knockout: sgATF3, 10000 nM | 61 ± 11
sgRNA knockout: sgATF4, 10 nM | 98 ± 17
sgRNA knockout: sgATF4, 100 nM | 120 ± 12
sgRNA knockout: sgATF4, 1000 nM | 145 ± 9.6
sgRNA knockout: sgATF4, 10000 nM | 79.4 ± 52
sgRNA knockout: sgATF6, 10 nM | 112 ± 24
sgRNA knockout: sgATF6, 100 nM | 86.5 ± 14
sgRNA knockout: sgATF6, 1000 nM | 125 ± 16
sgRNA knockout: sgATF6, 10000 nM | 57.1 ± 5.8
sgRNA knockout: sgATG7, 10 nM | 94.6 ± 6.7
sgRNA knockout: sgATG7, 100 nM | 104 ± 11
sgRNA knockout: sgATG7, 1000 nM | 124 ± 22
sgRNA knockout: sgATG7, 10000 nM | 57.9 ± 9.2
sgRNA knockout: sgERN1, 10 nM | 117 ± 9
sgRNA knockout: sgERN1, 100 nM | 96.2 ± 38
sgRNA knockout: sgERN1, 1000 nM | 132 ± 21
sgRNA knockout: sgERN1, 10000 nM | 52.7 ± 4.2
sgRNA knockout: sgHSF1, 10 nM | 95.9 ± 25
sgRNA knockout: sgHSF1, 100 nM | 107 ± 13
sgRNA knockout: sgHSF1, 1000 nM | 105 ± 6.9
sgRNA knockout: sgHSF1, 10000 nM | 58.8 ± 5.1
sgRNA knockout: sgHSF2, 10 nM | 109 ± 23
sgRNA knockout: sgHSF2, 100 nM | 107 ± 17
sgRNA knockout: sgHSF2, 1000 nM | 114 ± 15
sgRNA knockout: sgHSF2, 10000 nM | 68.1 ± 1.1
sgRNA knockout: sgKEAP1, 10 nM | 101 ± 3.1
sgRNA knockout: sgKEAP1, 100 nM | 89.5 ± 20
sgRNA knockout: sgKEAP1, 1000 nM | 109 ± 38
sgRNA knockout: sgKEAP1, 10000 nM | 63.1 ± 3.4
sgRNA knockout: sgNFE2L2, 10 nM | 105 ± 18
sgRNA knockout: sgNFE2L2, 100 nM | 90.9 ± 18
sgRNA knockout: sgNFE2L2, 1000 nM | 95 ± 7.8
sgRNA knockout: sgNFE2L2, 10000 nM | 52.9 ± 1.6
sgRNA knockout: sgSLC35F2, 10 nM | 118 ± 14
sgRNA knockout: sgSLC35F2, 100 nM | 97.8 ± 16
sgRNA knockout: sgSLC35F2, 1000 nM | 115 ± 17
sgRNA knockout: sgSLC35F2, 10000 nM | 64.1 ± 2.9
sgRNA knockout: sgXBP1, 10 nM | 90.9 ± 24
sgRNA knockout: sgXBP1, 100 nM | 99.7 ± 14
sgRNA knockout: sgXBP1, 1000 nM | 125 ± 28
sgRNA knockout: sgXBP1, 10000 nM | 56.5 ± 8.4

Cn1nnc2c(C(N)=O)ncn2c1=O [Temozolomide]
Details | relative cell number
sgRNA knockout: sgATF3, 10 nM | 112 ± 29
sgRNA knockout: sgATF3, 100 nM | 100 ± 9.8
sgRNA knockout: sgATF3, 1000 nM | 112 ± 18
sgRNA knockout: sgATF3, 10000 nM | 96.3 ± 5.6
sgRNA knockout: sgATF4, 10 nM | 155 ± 9.7
sgRNA knockout: sgATF4, 100 nM | 115 ± 13
sgRNA knockout: sgATF4, 1000 nM | 111 ± 43
sgRNA knockout: sgATF4, 10000 nM | 122 ± 2.9
sgRNA knockout: sgATF6, 10 nM | 108 ± 19
sgRNA knockout: sgATF6, 100 nM | 119 ± 9.8
sgRNA knockout: sgATF6, 1000 nM | 106 ± 16
sgRNA knockout: sgATF6, 10000 nM | 82.6 ± 13
sgRNA knockout: sgATG7, 10 nM | 122 ± 11
sgRNA knockout: sgATG7, 100 nM | 91.8 ± 9
sgRNA knockout: sgATG7, 1000 nM | 124 ± 5.3
sgRNA knockout: sgATG7, 10000 nM | 83.2 ± 5.2
sgRNA knockout: sgERN1, 10 nM | 111 ± 6.1
sgRNA knockout: sgERN1, 100 nM | 106 ± 30
sgRNA knockout: sgERN1, 1000 nM | 122 ± 19
sgRNA knockout: sgERN1, 10000 nM | 96.6 ± 14
sgRNA knockout: sgHSF1, 10 nM | 104 ± 2.2
sgRNA knockout: sgHSF1, 100 nM | 93.6 ± 8.4
sgRNA knockout: sgHSF1, 1000 nM | 101 ± 6.1
sgRNA knockout: sgHSF1, 10000 nM | 73.5 ± 19
sgRNA knockout: sgHSF2, 10 nM | 136 ± 4
sgRNA knockout: sgHSF2, 100 nM | 125 ± 13
sgRNA knockout: sgHSF2, 1000 nM | 112 ± 10
sgRNA knockout: sgHSF2, 10000 nM | 71.8 ± 5.7
sgRNA knockout: sgKEAP1, 10 nM | 140.8 ± 1.1
sgRNA knockout: sgKEAP1, 100 nM | 107 ± 9.5
sgRNA knockout: sgKEAP1, 1000 nM | 93.4 ± 2
sgRNA knockout: sgKEAP1, 10000 nM | 75.7 ± 7.3
sgRNA knockout: sgNFE2L2, 10 nM | 126 ± 19
sgRNA knockout: sgNFE2L2, 100 nM | 103 ± 16
sgRNA knockout: sgNFE2L2, 1000 nM | 111 ± 8.7
sgRNA knockout: sgNFE2L2, 10000 nM | 91.2 ± 24
sgRNA knockout: sgSLC35F2, 10 nM | 97 ± 2.3
sgRNA knockout: sgSLC35F2, 100 nM | 96.6 ± 25
sgRNA knockout: sgSLC35F2, 1000 nM | 92.4 ± 17
sgRNA knockout: sgSLC35F2, 10000 nM | 85.9 ± 26
sgRNA knockout: sgXBP1, 10 nM | 116 ± 7.6
sgRNA knockout: sgXBP1, 100 nM | 101 ± 2
sgRNA knockout: sgXBP1, 1000 nM | 125.1 ± 0.72
sgRNA knockout: sgXBP1, 10000 nM | 77.2 ± 3.9
